Data taken from the supplement of paper PMC10849652.
The list shows a part of the results.

By UniProt entry, the sequences of proteins in these tests, tags left out. Where a name states a change or a piece, a line headed by the entry shows the natural chain unless it says otherwise.
UniProt Q96DH6: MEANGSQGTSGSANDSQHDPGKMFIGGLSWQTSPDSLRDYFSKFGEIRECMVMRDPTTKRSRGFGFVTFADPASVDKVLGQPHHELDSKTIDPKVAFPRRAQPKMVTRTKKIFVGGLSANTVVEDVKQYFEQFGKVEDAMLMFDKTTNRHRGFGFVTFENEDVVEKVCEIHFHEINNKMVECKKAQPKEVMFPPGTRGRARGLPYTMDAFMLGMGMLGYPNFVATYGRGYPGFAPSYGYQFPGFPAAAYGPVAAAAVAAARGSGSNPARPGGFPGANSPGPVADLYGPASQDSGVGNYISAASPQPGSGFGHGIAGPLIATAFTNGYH
UniProt Q92614: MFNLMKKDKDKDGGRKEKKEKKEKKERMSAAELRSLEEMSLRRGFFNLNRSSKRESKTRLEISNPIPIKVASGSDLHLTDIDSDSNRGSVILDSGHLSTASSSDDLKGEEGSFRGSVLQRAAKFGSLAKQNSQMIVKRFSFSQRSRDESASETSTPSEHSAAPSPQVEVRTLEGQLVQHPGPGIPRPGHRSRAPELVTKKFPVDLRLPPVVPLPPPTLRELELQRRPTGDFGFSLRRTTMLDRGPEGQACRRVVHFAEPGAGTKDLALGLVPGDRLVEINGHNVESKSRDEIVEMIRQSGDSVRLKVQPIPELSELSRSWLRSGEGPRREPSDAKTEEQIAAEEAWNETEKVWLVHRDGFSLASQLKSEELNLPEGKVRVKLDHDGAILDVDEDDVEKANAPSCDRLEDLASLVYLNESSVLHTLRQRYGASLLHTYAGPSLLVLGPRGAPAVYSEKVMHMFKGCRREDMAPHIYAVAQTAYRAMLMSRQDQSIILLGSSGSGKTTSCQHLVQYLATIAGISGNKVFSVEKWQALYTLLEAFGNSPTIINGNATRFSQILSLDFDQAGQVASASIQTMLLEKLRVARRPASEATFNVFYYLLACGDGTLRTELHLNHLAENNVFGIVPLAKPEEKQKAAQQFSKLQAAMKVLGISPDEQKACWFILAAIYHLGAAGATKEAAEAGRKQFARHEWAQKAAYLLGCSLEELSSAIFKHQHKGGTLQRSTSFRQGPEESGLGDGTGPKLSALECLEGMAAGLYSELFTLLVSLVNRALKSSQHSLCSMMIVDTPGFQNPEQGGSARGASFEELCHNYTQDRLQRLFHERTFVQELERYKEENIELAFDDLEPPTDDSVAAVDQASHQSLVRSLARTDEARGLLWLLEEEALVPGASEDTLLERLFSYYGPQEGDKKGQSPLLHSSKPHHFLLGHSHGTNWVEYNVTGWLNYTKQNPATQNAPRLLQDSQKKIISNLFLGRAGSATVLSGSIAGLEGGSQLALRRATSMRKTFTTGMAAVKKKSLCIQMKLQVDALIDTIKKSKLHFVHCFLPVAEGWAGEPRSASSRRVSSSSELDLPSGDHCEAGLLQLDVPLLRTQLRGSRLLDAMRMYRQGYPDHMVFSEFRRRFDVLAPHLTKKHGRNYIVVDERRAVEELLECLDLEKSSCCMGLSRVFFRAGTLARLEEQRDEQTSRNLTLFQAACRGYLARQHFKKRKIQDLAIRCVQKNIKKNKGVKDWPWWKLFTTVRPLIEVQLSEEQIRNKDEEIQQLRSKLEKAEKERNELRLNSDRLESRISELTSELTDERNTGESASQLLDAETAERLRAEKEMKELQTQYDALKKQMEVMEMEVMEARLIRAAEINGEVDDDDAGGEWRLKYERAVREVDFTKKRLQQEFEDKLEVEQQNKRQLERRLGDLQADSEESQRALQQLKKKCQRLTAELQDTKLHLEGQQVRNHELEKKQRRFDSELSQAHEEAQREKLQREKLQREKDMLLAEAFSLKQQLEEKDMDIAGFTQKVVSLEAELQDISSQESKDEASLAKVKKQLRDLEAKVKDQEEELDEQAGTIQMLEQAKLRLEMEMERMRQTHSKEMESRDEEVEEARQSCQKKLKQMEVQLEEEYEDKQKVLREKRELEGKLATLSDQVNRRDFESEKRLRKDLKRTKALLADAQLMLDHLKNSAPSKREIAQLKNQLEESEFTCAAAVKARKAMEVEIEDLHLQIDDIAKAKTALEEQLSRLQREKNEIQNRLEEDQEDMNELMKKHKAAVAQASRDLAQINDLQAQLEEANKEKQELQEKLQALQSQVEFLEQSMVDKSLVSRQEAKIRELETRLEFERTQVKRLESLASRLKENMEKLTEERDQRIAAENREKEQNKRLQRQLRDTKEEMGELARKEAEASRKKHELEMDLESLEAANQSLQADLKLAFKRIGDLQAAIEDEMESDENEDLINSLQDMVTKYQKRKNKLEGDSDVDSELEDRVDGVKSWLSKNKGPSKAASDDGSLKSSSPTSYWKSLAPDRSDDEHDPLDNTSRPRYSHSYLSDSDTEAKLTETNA
UniProt Q7Z406, whole entry, looked up: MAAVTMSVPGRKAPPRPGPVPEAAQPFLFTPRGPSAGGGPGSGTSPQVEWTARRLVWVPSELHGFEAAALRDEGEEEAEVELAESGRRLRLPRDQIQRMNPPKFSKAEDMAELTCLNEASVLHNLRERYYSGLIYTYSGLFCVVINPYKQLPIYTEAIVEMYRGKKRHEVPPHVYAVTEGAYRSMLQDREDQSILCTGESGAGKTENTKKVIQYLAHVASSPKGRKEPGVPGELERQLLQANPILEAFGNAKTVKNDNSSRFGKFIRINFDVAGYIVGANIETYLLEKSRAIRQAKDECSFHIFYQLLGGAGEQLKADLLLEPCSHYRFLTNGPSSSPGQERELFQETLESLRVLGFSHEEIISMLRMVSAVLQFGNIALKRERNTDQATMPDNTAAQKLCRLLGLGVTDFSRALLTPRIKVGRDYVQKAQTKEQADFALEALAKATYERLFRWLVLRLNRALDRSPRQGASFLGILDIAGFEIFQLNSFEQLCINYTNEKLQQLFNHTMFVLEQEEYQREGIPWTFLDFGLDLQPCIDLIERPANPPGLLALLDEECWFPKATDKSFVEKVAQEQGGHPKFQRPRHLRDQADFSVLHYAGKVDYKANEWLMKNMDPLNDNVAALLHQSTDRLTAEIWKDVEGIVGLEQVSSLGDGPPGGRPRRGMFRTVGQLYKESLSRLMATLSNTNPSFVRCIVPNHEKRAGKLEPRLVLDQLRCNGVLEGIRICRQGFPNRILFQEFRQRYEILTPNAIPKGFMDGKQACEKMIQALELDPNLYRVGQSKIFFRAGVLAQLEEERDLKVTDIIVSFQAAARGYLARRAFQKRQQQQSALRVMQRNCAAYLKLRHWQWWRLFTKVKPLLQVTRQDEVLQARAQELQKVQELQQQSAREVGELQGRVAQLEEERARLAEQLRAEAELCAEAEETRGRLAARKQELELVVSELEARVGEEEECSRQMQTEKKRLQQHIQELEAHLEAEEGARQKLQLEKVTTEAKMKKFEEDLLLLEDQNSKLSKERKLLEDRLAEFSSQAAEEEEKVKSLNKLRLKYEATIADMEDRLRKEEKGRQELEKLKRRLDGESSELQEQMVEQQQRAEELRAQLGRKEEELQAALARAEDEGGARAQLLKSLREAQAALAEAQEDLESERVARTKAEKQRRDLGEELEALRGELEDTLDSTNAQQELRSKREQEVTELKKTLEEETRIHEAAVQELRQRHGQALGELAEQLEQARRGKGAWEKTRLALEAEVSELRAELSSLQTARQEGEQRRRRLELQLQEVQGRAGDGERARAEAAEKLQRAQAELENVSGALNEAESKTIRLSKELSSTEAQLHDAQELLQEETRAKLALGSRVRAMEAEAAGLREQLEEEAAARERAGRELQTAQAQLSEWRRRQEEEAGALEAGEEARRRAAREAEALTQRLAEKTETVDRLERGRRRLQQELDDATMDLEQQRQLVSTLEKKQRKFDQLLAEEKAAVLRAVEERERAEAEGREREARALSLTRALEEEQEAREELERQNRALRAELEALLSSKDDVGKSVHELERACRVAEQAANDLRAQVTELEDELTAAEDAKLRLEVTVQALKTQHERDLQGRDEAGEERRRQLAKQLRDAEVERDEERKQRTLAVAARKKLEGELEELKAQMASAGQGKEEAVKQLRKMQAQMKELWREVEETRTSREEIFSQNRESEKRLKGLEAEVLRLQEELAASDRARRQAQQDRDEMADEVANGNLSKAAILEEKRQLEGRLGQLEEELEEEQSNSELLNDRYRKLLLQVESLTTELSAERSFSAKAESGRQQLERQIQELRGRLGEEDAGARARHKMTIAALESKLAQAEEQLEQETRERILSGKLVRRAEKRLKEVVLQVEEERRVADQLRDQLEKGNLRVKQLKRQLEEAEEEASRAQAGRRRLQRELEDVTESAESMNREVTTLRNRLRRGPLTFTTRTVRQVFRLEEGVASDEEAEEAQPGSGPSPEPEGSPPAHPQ
UniProt O00159, whole entry, looked up: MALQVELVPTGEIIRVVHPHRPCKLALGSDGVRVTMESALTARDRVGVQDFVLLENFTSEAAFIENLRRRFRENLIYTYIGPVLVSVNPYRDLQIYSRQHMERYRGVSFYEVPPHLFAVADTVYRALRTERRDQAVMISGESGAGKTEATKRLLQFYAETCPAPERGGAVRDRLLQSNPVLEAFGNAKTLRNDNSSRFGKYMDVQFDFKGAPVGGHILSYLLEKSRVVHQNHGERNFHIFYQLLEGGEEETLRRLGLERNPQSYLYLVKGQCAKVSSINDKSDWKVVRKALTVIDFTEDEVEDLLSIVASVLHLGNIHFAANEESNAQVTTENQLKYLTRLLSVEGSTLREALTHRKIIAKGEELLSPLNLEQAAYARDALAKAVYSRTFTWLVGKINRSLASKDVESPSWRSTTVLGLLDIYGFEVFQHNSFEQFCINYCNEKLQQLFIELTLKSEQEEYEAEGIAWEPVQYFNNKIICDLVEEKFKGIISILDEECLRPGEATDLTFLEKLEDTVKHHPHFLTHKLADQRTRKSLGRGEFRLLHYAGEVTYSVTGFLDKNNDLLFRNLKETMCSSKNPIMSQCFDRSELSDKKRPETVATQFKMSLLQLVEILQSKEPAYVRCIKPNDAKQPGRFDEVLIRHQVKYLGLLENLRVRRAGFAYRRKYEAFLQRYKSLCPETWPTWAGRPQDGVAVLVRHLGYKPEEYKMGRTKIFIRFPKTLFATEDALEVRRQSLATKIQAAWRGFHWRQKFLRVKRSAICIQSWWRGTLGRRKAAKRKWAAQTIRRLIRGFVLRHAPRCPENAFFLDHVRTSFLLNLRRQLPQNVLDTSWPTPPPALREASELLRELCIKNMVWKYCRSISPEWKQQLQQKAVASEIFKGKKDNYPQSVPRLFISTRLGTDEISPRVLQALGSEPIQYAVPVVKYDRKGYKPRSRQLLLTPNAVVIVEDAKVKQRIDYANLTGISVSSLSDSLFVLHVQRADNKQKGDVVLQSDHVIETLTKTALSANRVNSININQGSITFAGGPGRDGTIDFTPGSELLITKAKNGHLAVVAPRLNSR
UniProt O94832: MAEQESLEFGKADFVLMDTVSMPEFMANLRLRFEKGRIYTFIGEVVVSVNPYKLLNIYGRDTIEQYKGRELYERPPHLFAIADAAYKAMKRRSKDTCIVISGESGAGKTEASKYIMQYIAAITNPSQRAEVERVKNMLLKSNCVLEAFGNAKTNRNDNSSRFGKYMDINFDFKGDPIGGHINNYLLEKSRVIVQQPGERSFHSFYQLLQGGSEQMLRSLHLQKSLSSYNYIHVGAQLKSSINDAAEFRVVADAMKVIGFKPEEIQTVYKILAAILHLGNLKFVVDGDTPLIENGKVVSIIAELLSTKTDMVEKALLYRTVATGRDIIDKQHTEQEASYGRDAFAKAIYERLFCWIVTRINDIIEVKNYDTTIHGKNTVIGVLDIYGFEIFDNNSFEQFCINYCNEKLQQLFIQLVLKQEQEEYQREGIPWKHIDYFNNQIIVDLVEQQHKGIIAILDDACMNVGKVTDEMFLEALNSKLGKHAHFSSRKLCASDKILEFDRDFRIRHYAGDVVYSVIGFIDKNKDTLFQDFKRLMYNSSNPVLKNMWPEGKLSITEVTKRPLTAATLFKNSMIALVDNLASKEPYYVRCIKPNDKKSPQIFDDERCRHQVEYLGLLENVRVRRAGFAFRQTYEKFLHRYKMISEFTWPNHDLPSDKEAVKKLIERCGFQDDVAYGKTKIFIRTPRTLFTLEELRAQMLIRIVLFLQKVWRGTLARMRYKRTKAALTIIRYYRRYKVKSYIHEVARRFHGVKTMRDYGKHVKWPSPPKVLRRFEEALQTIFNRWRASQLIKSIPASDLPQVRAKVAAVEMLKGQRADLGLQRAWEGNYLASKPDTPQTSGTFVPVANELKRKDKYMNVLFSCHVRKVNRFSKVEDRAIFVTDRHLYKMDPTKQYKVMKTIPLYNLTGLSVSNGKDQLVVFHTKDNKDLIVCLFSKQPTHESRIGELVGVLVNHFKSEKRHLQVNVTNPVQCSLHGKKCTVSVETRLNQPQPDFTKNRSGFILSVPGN

Assays:
Experiment in all cases: log2 fold change, soluble protein after heating vs DMSO (PISA); higher = thermal stabilisation; K562 cells, 10 uM, 30 min; active = over 0.2 and 3.5 SD of the protein, either way, in both replicates (recomputed)
[1] = compound: CC1=C(C=C(C=C1)NC(=O)C2=CC(=CC=C2)C(C)(C)C#N)NC3=CC4=C(C=C3)N=CN(C4=O)C
Summary of the method: (§1)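 Quantification of soluble protein used TMTpro 16plex LC-MS/MS, with channel sums equalised. Samples were the supernatant after 21,000xg for 90 min of pooled aliquots from K562 cells (2×10^6 cells/mL) treated with 10 μM compound for 30 min, heated for 3 min over 48°C-58°C, and extracted in PBS with 0.5% NP-40 at 4°C. Values, from duplicates, describe thermal stability against control samples on a log2 fold-change scale.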

[2] = compound: CC1=C(C=C(C=C1)NC(=O)C2=CC(=CC=C2)N(C)C)NC(=O)C3=CC=C(C=C3)O
Summary of the method: as §1

[3] = compound: CC1=CC=C(C=C1)SC2=C3C=C(SC3=CN=C2)C(=O)N
Summary of the method: as §1

[4] = compound: CC1=NC(=CC=C1)C2=C(N=C(N2)C(C)(C)C)C3=CC4=NC=CN=C4C=C3
Summary of the method: as §1

[5] = compound: CCCCN(Cc1ccc(C(=O)NO)cc1)C(=O)Nc1ccccc1 [Nexturastat A]
Summary of the method: as §1

[6] = compound: CCCS(=O)(=O)Nc1ccc(F)c(C(=O)c2c[nH]c3ncc(-c4ccc(Cl)cc4)cc23)c1F [vemurafenib]
Summary of the method: as §1

[7] = compound: CCCS(=O)(=O)Nc1ccc(F)c(C(=O)c2c[nH]c3ncc(Cl)cc23)c1F
Summary of the method: as §1

[8] = compound: CCCc1cc(C)[nH]c(=O)c1CNC(=O)c1cc(-c2ccnc(N3CCN(C)CC3)c2)cc2c1cnn2C(C)C
Summary of the method: as §1

[9] = compound: CCN(CC)Cc1ccc2cc(COC(=O)Nc3ccc(C(=O)NO)cc3)ccc2c1 [givinostat]
Summary of the method: as §1

[10] = compound: CCN(CCCOc1ccc2c(Nc3cc(CC(=O)Nc4cccc(F)c4)[nH]n3)ncnc2c1)CCOP(=O)(O)O [barasertib]
Summary of the method: as §1

[11] = compound: CC[C@@H]1C(=O)N(C)c2cnc(Nc3ccc(C(=O)NC4CCN(C)CC4)cc3OC)nc2N1C1CCCC1
Summary of the method: as §1

[12] = compound: CC[C@@H]1C(=O)N(C)c2cnc(Nc3ccc(C(=O)N[C@H]4CC[C@H](N5CCN(CC6CC6)CC5)CC4)cc3OC)nc2N1C(C)C [volasertib]
Summary of the method: as §1

[13] = compound: CC[C@H](C)N1C=C(C2=C(C=C(C=C21)C3=CN=C(C=C3)N4CCNCC4)C(=O)NCC5=C(C=C(NC5=O)C)C)C
Summary of the method: as §1

[14] = compound: CC[C@H](C)[C@@H](C(=O)N[C@@H]([C@@H](C)O)C(=O)N[C@@H](CC(C)C)C(=O)[C@]1(CO1)C)NC(=O)[C@H]([C@@H](C)CC)N(C)C(=O)C [epoxomicin]
Summary of the method: as §1

[15] = compound: CCn1c(C(=O)N(C2CC2)C2CC2)cc2c3c(ncn3C)c(Nc3cc(C)n(C)n3)nc21
Summary of the method: as §1

[16] = compound: CCn1cc(-c2ccnc3[nH]c(-c4cccc(CN(C)C)c4)cc23)c(-c2ccc(NC(=O)N(C)C)cc2)n1
Summary of the method: as §1

[17] = compound: CN(C)CC(=O)Nc1ccc2[nH]c(=O)c3ccccc3c2c1
Summary of the method: as §1

[18] = compound: CN(CCOC1=CC=C(C=C1)C[C@H]2C(=O)NC(=O)S2)C3=CC=CC=N3 (racemic) [rosiglitazone]
Summary of the method: as §1

[19] = compound: CN1C2=C(C3=C1C(=O)N(N=C3)CC4=CC(=CC=C4)N)SC(=C2)S(=O)C
Summary of the method: as §1

[20] = compound: CN1CCC(CNc2ccc3ncc(-c4cccc(OC(F)(F)F)c4)n3n2)CC1
Summary of the method: as §1

Measured: log2 fold change

MRPS18A isoform 2 (UniProt Q9NVS2)
inactive: [1] 0.004 | [2] -0.029 | [3] -0.065 | [4] -0.054 | [5] 0.155 | [6] -0.085 | [7] -0.15 | [8] 0.063 | [9] 0.258 | [10] -0.024 | [11] 0.154 | [12] 0.228 | [13] 0.008 | [14] -0.102 | [15] -0.035 | [16] 0.005 | [17] -0.062 | [18] 0.019 | [19] 0.108 | [20] 0

MSI2 (UniProt Q96DH6)
inactive: [1] 0.067 | [2] 0.032 | [3] -0.027 | [4] 0.021 | [5] 0.102 | [6] 0.041 | [7] 0.03 | [8] 0.021 | [9] -0.031 | [10] -0.009 | [11] 0.163 | [12] 0.012 | [13] -0.013 | [14] -0.122 | [15] -0.003 | [16] 0.005 | [17] 0.023 | [18] 0.091 | [19] 0.084 | [20] -0.003

MRTFA (UniProt Q969V6)
inactive: [1] 0.011 | [2] -0.096 | [3] -0.036 | [4] 0.06 | [5] -0.018 | [6] -0.148 | [7] 0.032 | [8] 0.032 | [9] 0.045 | [10] -0.02 | [11] -0.084 | [12] -0.064 | [13] 0.002 | [14] 0.074 | [15] 0.039 | [16] 0 | [17] -0.129 | [18] 0.035 | [19] 0.021 | [20] -0.092

MYO18A (UniProt Q92614)
inactive: [1] -0.085 | [2] 0.022 | [3] 0.008 | [4] -0.06 | [5] 0.166 | [6] -0.05 | [7] -0.047 | [8] 0.028 | [9] -0.01 | [10] 0.01 | [11] -0.077 | [12] -0.12 | [13] 0.017 | [14] -0.054 | [15] 0.031 | [16] 0.062 | [17] -0.039 | [18] -0.013 | [19] 0.062 | [20] -0.007

Taken from the listing (2 entries):
MRTFA (UniProt Q969V6)
inactive: [1] 0.011 | [2] -0.096 | [3] -0.036 | [4] 0.06 | [5] -0.018 | [6] -0.148 | [7] 0.032 | [8] 0.032 | [9] 0.045 | [10] -0.02 | [11] -0.084 | [12] -0.064 | [13] 0.002 | [14] 0.074 | [15] 0.039 | [16] 0 | [17] -0.129 | [18] 0.035 | [19] 0.021 | [20] -0.092

MYO18A (UniProt Q92614)
inactive: [1] -0.085 | [2] 0.022 | [3] 0.008 | [4] -0.06 | [5] 0.166 | [6] -0.05 | [7] -0.047 | [8] 0.028 | [9] -0.01 | [10] 0.01 | [11] -0.077 | [12] -0.12 | [13] 0.017 | [14] -0.054 | [15] 0.031 | [16] 0.062 | [17] -0.039 | [18] -0.013 | [19] 0.062 | [20] -0.007

Going on with the list:

MVD (UniProt P53602)
inactive: [1] 0.01 | [2] -0.007 | [3] 0.03 | [4] 0.02 | [5] -0.074 | [6] 0.038 | [7] 0.058 | [8] 0.015 | [9] -0.033 | [10] 0.044 | [11] 0.013 | [12] 0.017 | [13] 0.011 | [14] 0.014 | [15] -0.057 | [16] -0.059 | [17] -0.022 | [18] 0.003 | [19] 0.002 | [20] -0.081

MYO6 isoform 6 (UniProt Q9UM54)
inactive: [1] -0.04 | [2] -0.005 | [3] -0.015 | [4] -0.023 | [5] -0.038 | [6] -0.006 | [7] 0.001 | [8] -0.025 | [9] -0.075 | [10] 0 | [11] 0.079 | [12] 0.007 | [13] -0.027 | [14] -0.005 | [15] -0.024 | [16] -0.132 | [17] -0.009 | [18] 0.004 | [19] -0.096 | [20] 0.037

MYH14 isoform 2 (UniProt Q7Z406)
inactive: [1] -0.044 | [2] -0.021 | [3] 0.052 | [4] 0.015 | [5] 0.018 | [6] 0.026 | [7] 0.091 | [8] -0.002 | [9] -0.078 | [10] 0.034 | [11] -0.019 | [12] -0.128 | [13] -0.011 | [14] 0.123 | [15] -0.019 | [16] -0.047 | [17] 0.005 | [18] 0.044 | [19] -0.011 | [20] -0.08

MYCBP2 (UniProt O75592)
inactive: [1] -0.191 | [2] 0.36 | [3] 0.019 | [4] -0.192 | [5] 0.582 | [6] -0.158 | [7] -0.032 | [8] -0.327 | [9] 0.078 | [10] -0.167 | [11] 0.055 | [12] 0.043 | [13] -0.109 | [14] -0.059 | [15] 0.032 | [16] 0.014 | [17] -0.049 | [18] -0.126 | [19] 0.69 | [20] -0.255

MYO1C (UniProt O00159)
inactive: [1] -0.017 | [2] -0.001 | [3] -0.019 | [4] 0.224 | [5] 0.268 | [6] -0.046 | [7] 0.13 | [8] 0.057 | [9] 0.043 | [10] -0.031 | [11] -0.056 | [12] -0.322 | [13] 0.115 | [14] -0.144 | [15] -0.03 | [16] -0.011 | [17] 0.009 | [18] 0.064 | [19] 0.154 | [20] -0.209

MRPS30 (UniProt Q9NP92)
inactive: [1] 0.042 | [2] -0.038 | [3] -0.051 | [4] -0.06 | [5] 0.13 | [6] -0.032 | [7] -0.047 | [8] 0.091 | [9] -0.036 | [10] -0.108 | [11] -0.014 | [12] 0.17 | [13] 0.095 | [14] 0.045 | [15] -0.051 | [16] -0.202 | [17] -0.008 | [18] 0.021 | [19] 0.053 | [20] 0.12

MYADM (UniProt Q96S97)
inactive: [1] 0.068 | [2] -0.019 | [3] -0.001 | [4] 0.054 | [5] -0.044 | [6] -0.01 | [7] 0.008 | [8] -0.05 | [9] -0.035 | [10] -0.057 | [11] 0.019 | [12] 0.011 | [13] -0.022 | [14] 0.058 | [15] 0.049 | [16] 0.184 | [17] 0.025 | [18] 0.042 | [19] 0.085 | [20] -0.051

MUC1, A0A087WWM1
inactive: [1] 0.032 | [2] 0.036 | [3] 0.06 | [4] 0.027 | [5] 0.026 | [6] -0.1 | [7] -0.023 | [8] -0.016 | [9] -0.013 | [10] 0.034 | [11] 0.088 | [12] 0.054 | [13] 0.018 | [14] 0.023 | [15] 0.027 | [16] -0.082 | [17] 0.035 | [18] -0.006 | [19] -0.125 | [20] 0.147

MYO1D (UniProt O94832)
inactive: [1] 0.105 | [2] 0.042 | [3] -0.008 | [4] -0.02 | [5] 0.239 | [6] 0.006 | [7] 0.012 | [8] 0.157 | [9] 0.057 | [10] -0.037 | [11] 0.033 | [12] -0.198 | [13] -0.033 | [14] -0.196 | [15] -0.005 | [16] 0.079 | [17] -0.019 | [18] -0.049 | [19] 0.171 | [20] -0.198

MRTO4 (UniProt Q9UKD2)
inactive: [1] 0.015 | [2] -0.067 | [3] -0.069 | [4] -0.107 | [5] 0.209 | [6] 0.114 | [7] 0.136 | [8] 0.159 | [9] 0.217 | [10] 0.018 | [11] -0.052 | [12] -0.431 | [13] 0.08 | [14] -0.257 | [15] -0.16 | [16] 0.209 | [17] 0.057 | [18] -0.064 | [19] 0.246 | [20] 0.228

MRPS23 (UniProt Q9Y3D9)
inactive: [1] 0.053 | [2] -0.046 | [3] -0.001 | [4] 0.031 | [5] -0.042 | [6] -0.002 | [7] -0.019 | [8] -0.172 | [9] 0.068 | [10] 0.096 | [11] -0.001 | [12] 0.08 | [13] 0.133 | [14] 0.044 | [15] 0.032 | [16] -0.018 | [17] 0.024 | [18] 0.006 | [19] 0.047 | [20] 0.068

MRPS28 (UniProt Q9Y2Q9)
inactive: [1] 0.08 | [2] -0.042 | [3] -0.042 | [4] -0.017 | [5] 0.238 | [6] 0.055 | [7] 0.001 | [8] 0.002 | [9] 0.037 | [10] -0.104 | [11] 0.074 | [12] 0.186 | [13] 0.005 | [14] 0.093 | [15] 0 | [16] -0.124 | [17] -0.052 | [18] -0.024 | [19] 0.027 | [20] -0.068
